Laboratory results: PubChem BioAssay AID1259424 (University of Nebraska Medical Center, 2018)

Aim: 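Rank knockdowns across the genome by resemblance to the KSR1 depletion profile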 (primary screen)
Cell system: human HCT116 colon cancer cells
Reagent: siRNA pool against human genes, 50 nM
Detection: 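Log2 levels of six mRNAs (branched-DNA multiplex), adjusted by two reference genes and the non-targeting median, then scored against the average KSR1 knockdown pattern as Pearson r and euclidean distance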
Scale: mean correlation with KSR1 profile: higher = expression change more like KSR1 knockdown
Here is an unselected part of about 14,000 reagents. 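Higher correlation or smaller distance means closer resemblance to KSR1 loss; control wells, including KSR1 knockdowns, recur on many plates.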 Further read-outs or replicates are left out here. Not stated in the record: the time to read-out.

| gene | mean correlation with KSR1 profile |
| --- | --- |
| LPCAT2 (lysophosphatidylcholine acyltransferase 2) | -0.551 |
| CTSF (cathepsin F) | 0.0672 |
| AQP7 (aquaporin 7) | -0.336 |
| RNF216 (ring finger protein 216) | 0.658 |
| CHD4 (chromodomain helicase DNA binding protein 4) | -0.438 |
| COL5A2 (collagen type V alpha 2 chain) | 0.414 |
| SLC22A6 | 0.533 |
| SELP (selectin P) | 0.535 |
| RPL35A (ribosomal protein L35a) | -0.00665 |
| STK32A (serine/threonine kinase 32A) | 0.982 |
| HNRNPA0 (heterogeneous nuclear ribonucleoprotein A0) | -0.0525 |
| NPIPB3 (nuclear pore complex interacting protein family member B3) | -0.459 |
| ELOVL7 (ELOVL fatty acid elongase 7) | 0.423 |
| ZNF436 (zinc finger protein 436) | 0.387 |
| KCNIP4 (potassium voltage-gated channel interacting protein 4) | 0.573 |
| SFTPA1 (surfactant protein A1) | 0.188 |
| C1QBP (complement C1q binding protein) | 0.084 |
| IFT80 (intraflagellar transport 80) | 0.145 |
| PTPRD (protein tyrosine phosphatase receptor type D) | 0.239 |
| CDC23 (cell division cycle 23) | 0.845 |

A portion taken from the entries so far, for reference:
| gene | mean correlation with KSR1 profile |
| --- | --- |
| ZNF436 (zinc finger protein 436) | 0.387 |
| KCNIP4 (potassium voltage-gated channel interacting protein 4) | 0.573 |

Next reagents:
| gene | mean correlation with KSR1 profile |
| --- | --- |
| SUPT3H (SPT3 homolog, SAGA and STAGA complex component) | -0.24 |
| DOCK7 (dedicator of cytokinesis 7) | 0.421 |
| PTPN6 (protein tyrosine phosphatase non-receptor type 6) | 0.481 |
| RUVBL1 (RuvB like AAA ATPase 1) | -0.325 |
| CCDC3 (coiled-coil domain containing 3) | 0.477 |
| PIEZO1 | -0.487 |
| BCAP31 (B cell receptor associated protein 31) | -0.106 |
| CYBRD1 (cytochrome b reductase 1) | 0.448 |
| NKX6-2 (NK6 homeobox 2) | -0.388 |
| NXPH4 (neurexophilin 4) | 0.144 |
| UPK2 (uroplakin 2) | 0.23 |
| DDB2 (damage specific DNA binding protein 2) | 0.855 |
| S100A2 (S100 calcium binding protein A2) | 0.496 |
| KDM3A (lysine demethylase 3A) | -0.211 |
| FTHL17 (ferritin heavy chain like 17) | 0.158 |
| AMELY (amelogenin Y-linked) | -0.317 |
| ZNF500 (zinc finger protein 500) | -0.183 |
| GPALPP1 (GPALPP motifs containing 1) | -0.878 |
| WNT10A (Wnt family member 10A) | -0.216 |
| CHRNA9 (cholinergic receptor nicotinic alpha 9 subunit) | 0.00305 |
| ST6GAL2 (ST6 beta-galactoside alpha-2,6-sialyltransferase 2) | 0.525 |
| GIMAP5 (GTPase, IMAP family member 5) | 0.396 |
| NFKBIL1 (NFKB inhibitor like 1) | -0.43 |
| CSF3R (colony stimulating factor 3 receptor) | 0.934 |
| TLR8 (toll like receptor 8) | 0.679 |
| PLG (plasminogen) | 0.0798 |
| SLC18A3 | -0.689 |
| INTS7 (integrator complex subunit 7) | -0.192 |
| IDH2 (isocitrate dehydrogenase (NADP(+)) 2) | 0.675 |
| PRPH (peripherin) | -0.236 |
